In PMC9458065, “Discovery of Quinacrine as a Potent Topo II and Hsp90 Dual-Target Inhibitor, Repurposing for Cancer Therapy” (Molecules, 2022):

System: HL60 (HL−60 human leukemia cell)
Experiment: cells
Design: MTT cell proliferation assay, OD 570 nm, IC50 from triplicate dose-response
Details: MTT, 48 h
Experimental: The cell proliferation assay was evaluated using the MTT assay as described by Mosmann, with modifications. Cells were seeded into 96−well plates (5 × 10^3 cells/well) and exposed to various concentrations of compounds. After 48 h of treatment, 20 μL of 2.5 mg/mL MTT reagent was added to each well, and the cells were further incubated for 4 h at 37 ℃. The cells in each well were then treated with 100 μL of dimethyl sulfoxide (DMSO), and the optical density (OD) was recorded at 570 nm using a microplate reader (Bio−Tek). All experiments were performed in parallel three times, and the IC50 values were derived from the mean OD values of triplicate tests versus the drug concentration curves. […] HL−60 human leukemia cell is sensitive to Topo II inhibitors, which are commonly used to evaluate the inhibitory effect of Topo II inhibitors on proliferation.

Structure (SMILES): CN[C@@H]1C[C@H]2O[C@@](C)([C@@H]1OC)n1c3ccccc3c3c4c(c5c6ccccc6n2c5c31)C(=O)NC4 [K−B6, Staurosporine]
- IC50: < 0.01 µM
